Data reported in patent publication US9738690B2, “Polyoma virus JC peptides and proteins in vaccination and diagnostic applications” (UNIVERSITAET ZUERICH, priority 2011, dated 2017).
Some entries share one result that the patent states for a list of compounds.

Tested on: brain-derived PHA-expanded cells
Format: cell-based, human
Details: individual peptides at 10 μM, 72 hours

Substance | stimulation index (SI), individual JCV peptides
4: 15-mer JCV Agno peptide starting at amino acid 25; likely SEQ ID NO 1 (image row of Table 1) (AQRILIFLLEFLLDF; JC virus) [Peptide 4] | > 10
20: 15-mer VP1 peptide starting at amino acid 34; likely SEQ ID NO 2 (image row of Table 1) (VDSITEVECFLTPEM; JC virus) [Peptide 20] | > 10
23: 15-mer VP1 peptide starting at amino acid 54; likely SEQ ID NO 3 (image row of Table 1) [Peptide 23] | > 10
27: VP174 peptide, 15-mer VP1 starting at amino acid 74; likely SEQ ID NO 7 [Peptide 27] | > 10
28: variant of peptide 27 with single aa mutation; likely SEQ ID NO 8 (NFDMLPCYSVARIPL; variant of JCV peptide) [Peptide 28] | > 10
29: variant of peptide 27 with single aa mutation; likely SEQ ID NO 9 (NKDMLPCYSVARIPL; variant of JCV peptide) [Peptide 29] | > 10
72: VP1 peptide starting at amino acid 310; likely SEQ ID NO 43 [Peptide 72] | > 10
